# Measured values as given in patent publication US8163909B2, “Substituted hydroxyethyl amine compounds as beta-secretase modulators and methods of use” (Amgen Inc., priority 2007, dated 2012).
# Amino acid sequences for entries named in this document (tags omitted). Residues count along the entry.
# UniProt P56817, 46-501 limits assumed: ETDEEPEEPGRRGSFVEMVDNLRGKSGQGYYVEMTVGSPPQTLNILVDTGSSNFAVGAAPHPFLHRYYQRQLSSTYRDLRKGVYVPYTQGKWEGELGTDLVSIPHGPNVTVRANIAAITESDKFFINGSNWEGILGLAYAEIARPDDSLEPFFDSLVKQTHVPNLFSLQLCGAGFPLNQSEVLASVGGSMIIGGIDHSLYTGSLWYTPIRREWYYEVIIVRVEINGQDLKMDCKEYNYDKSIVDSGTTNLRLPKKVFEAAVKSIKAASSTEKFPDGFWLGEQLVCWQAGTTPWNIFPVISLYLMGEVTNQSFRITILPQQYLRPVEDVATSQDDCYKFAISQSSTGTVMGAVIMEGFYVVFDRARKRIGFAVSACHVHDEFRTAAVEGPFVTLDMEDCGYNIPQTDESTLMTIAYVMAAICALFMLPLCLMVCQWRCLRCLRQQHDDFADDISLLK
# UniProt P10635, whole entry: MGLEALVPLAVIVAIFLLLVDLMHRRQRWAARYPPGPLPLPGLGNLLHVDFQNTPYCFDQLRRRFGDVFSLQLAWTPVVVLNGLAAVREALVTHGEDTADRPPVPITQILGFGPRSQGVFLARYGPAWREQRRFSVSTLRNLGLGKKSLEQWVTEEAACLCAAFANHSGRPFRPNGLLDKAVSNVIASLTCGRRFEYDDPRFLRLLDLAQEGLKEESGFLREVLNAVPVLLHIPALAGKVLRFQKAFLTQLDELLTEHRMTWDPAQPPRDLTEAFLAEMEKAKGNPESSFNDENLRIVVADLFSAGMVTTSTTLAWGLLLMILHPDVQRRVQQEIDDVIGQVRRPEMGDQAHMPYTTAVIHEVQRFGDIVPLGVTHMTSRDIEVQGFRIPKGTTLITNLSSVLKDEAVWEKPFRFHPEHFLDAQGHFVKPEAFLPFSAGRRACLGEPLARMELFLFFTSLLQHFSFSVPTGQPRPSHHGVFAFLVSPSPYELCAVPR
# UniProt P08684, 2-503 limits assumed: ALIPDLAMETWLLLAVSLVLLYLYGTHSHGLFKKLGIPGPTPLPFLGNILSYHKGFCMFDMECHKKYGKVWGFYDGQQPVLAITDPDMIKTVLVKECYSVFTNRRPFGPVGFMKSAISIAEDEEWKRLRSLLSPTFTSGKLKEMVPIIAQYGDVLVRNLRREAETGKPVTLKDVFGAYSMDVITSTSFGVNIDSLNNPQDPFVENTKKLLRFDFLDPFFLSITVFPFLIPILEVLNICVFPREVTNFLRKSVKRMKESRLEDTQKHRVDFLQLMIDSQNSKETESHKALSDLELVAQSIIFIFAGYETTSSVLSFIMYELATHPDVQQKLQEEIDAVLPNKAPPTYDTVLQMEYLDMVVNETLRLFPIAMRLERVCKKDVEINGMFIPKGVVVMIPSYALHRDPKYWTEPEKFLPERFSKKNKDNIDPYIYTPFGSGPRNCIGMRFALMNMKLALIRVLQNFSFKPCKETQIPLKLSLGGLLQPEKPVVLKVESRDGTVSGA
# Columns and labels:
# [1] = test system: Aβ40 in conditioned medium of cells stably expressing Amyloid Precursor Protein (APP); assay: In vitro BACE cell-based assay (Aβ40 in conditioned medium, sandwich ELISA);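 also: compounds added as a dilution series, secreted peptide quantified by europium time-resolved fluorescence readout, potency fitted from percent of control versus compound concentration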
# [2] = molecular target: Beta Secretase enzyme (BACE) (Homo sapiens, UniProt P56817); assay: In vitro enzymatic BACE FRET (fluorescence resonance energy transfer) assay; assay type: biochemical;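 also: fluorescence read after 1 h with 50 nM quenched peptide substrate spanning the BACE cleavage site, in pH 4.2 acetate buffer containing 10% DMSO and nonionic detergent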
# CYP2D6 = CYP2D6 (Homo sapiens, UniProt P10635); assay: CYP2D6 inhibition assay (bufuralol, pooled human liver microsomes); assay type: in vitro ADME; settings: read-out: 2D6 IC50
# [3] = Microsomal stability assay, human liver microsomes; assay type: in vitro ADME;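 also: pooled human liver microsomes at 0.25 mg/mL with 1 µM compound and NADPH at 37 °C, pH 7.4, for 30 min, unchanged parent quantified by LC-MS/MS against the 0 min sample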
# [4] = Microsomal stability assay, rat liver microsomes; assay type: in vitro ADME;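 also: rat liver microsomes (0.25 mg/mL) with about 1 µM compound plus 1 mM NADPH, pH 7.4, 37 °C for 30 min, parent left measured by LC-MS/MS against 0 min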
# CYP3A = CYP3A (Homo sapiens, UniProt P08684); settings: read-out: 3A4 IC50;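 also: inhibition of CYP3A-mediated 1-hydroxymidazolam formation after 10 min incubation with NADPH, quantified by HPLC MS relative to metabolite produced without test compound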
# [5] = read-out: HEK cell assay (IC50), HEK cells, cell-based assay
# [6] = read-out: BACE1 FRET assay (IC50), BACE enzyme FRET assay
structure (smiles),measurement,setting,value
CO[C@H](C)C(=O)N[C@@H](Cc1cc(F)c2c(c1)OCO2)C(O)CN[C@H]1CC2(CCC2)Oc2ncc(CC(C)(C)C)cc21 (some centres unmarked),IC50,[1]; [5],12.2 nM
same,IC50,[2]; [6],15 nM
"COCC(=O)N[C@@H](Cc1ccc(F)c(-c2cncs2)c1)[C@H](O)CN[C@H]1CC2(CCC2)Oc2ncc(CC(C)(C)C)cc21 [compound 684, N-((1S,2R)-3-(((4′S)-6′-(2,2-dimethylpropyl)-3′,4′-dihydrospiro[cyclobutane-1,2′-pyrano[2,3-b]pyridin]-4′-yl)amino)-1-(4-fluoro-3-(1,3-thiazol-5-yl)benzyl)-2-hydroxypropyl)-2-methoxyacetamide]",IC50,"[1]; read-out: HEK cell assay (IC50), HEK cells",25 nM
same,IC50,CYP2D6; CYP2D6 inhibition,200 nM
same,HLM,[3]; human liver microsomes,78 µL/min/mg
same,IC50,[2]; read-out: BACE1 FRET assay (IC50),4 nM
same,RLM,[4]; rat liver microsomes,74 µL/min/mg
COC(C)C(=O)N[C@@H](Cc1cccc(F)c1)[C@H](O)CN[C@H]1CC2(CCC2)Oc2ncc(CCC(F)(F)F)cc21 (some centres unmarked),IC50,[1]; [5],281 nM
same,IC50,[2]; [6],127 nM
CC(=O)N[C@@H](Cc1cccc(F)c1)[C@H](O)CN[C@H]1CC2(CCC2)Oc2ncc(C(F)[C@@H](C)C(F)(F)F)cc21 (some centres unmarked),IC50,"[1]; read-out: HEK cell assay, Table 1, HEK cells",63.2 nM
same,IC50,"[2]; read-out: BACE1 FRET assay, Table 1",13.7 nM
COCC(=O)N[C@@H](Cc1ccc2c(c1)OCO2)[C@H](O)CN[C@H]1CC2(CCC2)Oc2ncc(C(F)(F)C(C)(C)C)cc21,IC50,"[1]; read-out: HEK cell assay, HEK cell-based assay IC50",67 nM
same,IC50,"[1]; read-out: HEK cell assay, HEK cells",627 nM
same,IC50,CYP2D6; CYP2D6 inhibition,1400 nM
same,IC50,CYP2D6; CYP enzyme inhibition,3200 nM
same,HLM,[3]; human liver microsomal data,40 µL/min/mg
same,HLM,[3]; human liver microsomes,158 µL/min/mg
same,IC50,"[2]; read-out: BACE1 FRET assay, BACE enzyme assay",280 nM
same,IC50,"[2]; read-out: BACE1 FRET assay, BACE enzyme assay IC50",6 nM
same,RLM,[4]; rat liver microsomal data,187 µL/min/mg
same,RLM,[4]; rat liver microsomes,123 µL/min/mg
same,IC50,CYP3A; CYP3A4 inhibition,200 nM
same,IC50,CYP3A; CYP enzyme inhibition,100 nM
CC(=O)N[C@@H](Cc1cc(F)c2c(c1)OCO2)C(O)CN[C@H]1CC2(CCC2)Oc2ncc(CC(C)(C)C)cc21 (some centres unmarked),IC50,"[1]; read-out: HEK cell assay (IC50), HEK cells, cell-based assay, tested form: mixture of the (2R) and (2S) carbinol ep",8.53 nM
same,IC50,"[2]; read-out: BACE1 FRET assay (IC50), BACE enzyme FRET assay, tested form: mixture of the (2R) and (2S) carbinol ep",7.78 nM
COCC(=O)N[C@@H](Cc1cc(F)c2c(c1)OCO2)C(O)CN[C@H]1CC2(CCC2)Oc2ncc(CC(C)(C)C)cc21 (some centres unmarked),IC50,[1]; [5],7.1 nM
same,IC50,[2]; [6],9.17 nM
CC(=O)N[C@@H](Cc1ccc(F)cc1)[C@H](O)CN[C@H]1CC2(CCOC2)Oc2c(F)cc(CC(C)(C)C)cc21 (some centres unmarked),IC50,[1]; [5],45.4 nM
same,IC50,"[2]; read-out: BACE1 FRET assay (IC50), BACE enzyme assay",19.6 nM

# Like-named read-outs stand apart in the source and are kept apart here. Structures were worked out from names or drawings and are uncertain.
